We go through two molecules from patent US20120015352A1, “METHOD OF DETERMINING SENSITIVITY OF HUMAN OR NON-HUMAN ANIMAL CELLS TO AN IAP ANTAGONIST” (Otto-von-Guericke-Universitat Magdeburg, priority 2009, published 2012).

Results are given in words; binding and its absence hold for the method and conditions named. Some results given as binding are weak or reduced against the parent protein; the word gives no strength.

One assay deals with T1, CD95 (human), P25445.
T1 chain: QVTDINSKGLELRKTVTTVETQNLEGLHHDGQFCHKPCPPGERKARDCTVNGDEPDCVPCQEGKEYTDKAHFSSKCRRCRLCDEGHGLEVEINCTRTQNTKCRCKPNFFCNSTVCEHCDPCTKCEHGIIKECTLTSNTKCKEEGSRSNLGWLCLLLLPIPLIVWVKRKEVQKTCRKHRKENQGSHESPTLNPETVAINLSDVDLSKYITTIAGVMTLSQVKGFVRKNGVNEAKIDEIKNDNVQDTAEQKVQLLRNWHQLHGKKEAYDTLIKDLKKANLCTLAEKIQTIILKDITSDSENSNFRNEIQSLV
The assay is described as follows: CD95L-Fc ligand affinity precipitation of the DISC from MET1 and A5-RT3 cells, Western blot. Conditions: remark: other sources report otherwise. A general note: In western blotting, separated proteins are transferred to a membrane and probed.

Another assay deals with CD95 (human) (UniProt P25445). The assay is described as above.

B1: FADD, Q13158 1-208 (protein, human, UniProt Q13158 1-208, looked up)
chain: MDPFLVLLHSVSSSLSSSELTELKFLCLGRVGKRKLERVQSGLDLFSMLLEQNDLEPGHTELLRELLASLRRHDLLRRVDDFEAGAAAGAAPGEEDLCAAFNVICDNVGKDWRRLARQLKVSDTKIDSIEDRYPRNLTERVRESLRIWKNTEKENATVAHLVGALRSCQMNLVADLVQEVQQARDLQNRSGAMSPMSWNSDASTSEAS
As for B1, the binding entry in the assay with CD95 (human), P25445 is reported as “binds”.

B2: caspase-10 (enzyme, human, UniProt Q92851 1-521, looked up)
chain: MKSQGQHWYSSSDKNCKVSFREKLLIIDSNLGVQDVENLKFLCIGLVPNKKLEKSSSASDVFEHLLAEDLLSEEDPFFLAELLYIIRQKKLLQHLNCTKEEVERLLPTRQRVSLFRNLLYELSEGIDSENLKDMIFLLKDSLPKTEMTSLSFLAFLEKQGKIDEDNLTCLEDLCKTVVPKLLRNIEKYKREKAIQIVTPPVDKEAESYQGEEELVSQTDVKTFLEALPQESWQNKHAGSNGNRATNGAPSLVSRGMQGASANTLNSETSTKRAAVYRMNRNHRGLCVIVNNHSFTSLKDRQGTHKDAEILSHVFQWLGFTVHIHNNVTKVEMEMVLQKQKCNPAHADGDCFVFCILTHGRFGAVYSSDEALIPIREIMSHFTALQCPRLAEKPKLFFIQACQGEEIQPSVSIEADALNPEQAPTSLQDSIPAEADFLLGLATVPGYVSFRHVEEGSWYIQSLCNHLKKLVPRMLKFLEKTMEIRGRKRTVWGAKQISATSLPTAISAQTPRPPMRRWSSVS
B2: in the assay with CD95 (human), the binding result was “binds”.
